These are yes or no findings as the source states them, for the method shown. Binding seen in cells or lysates may run through a third protein. A yes stands for co-enrichment or nearness to the bait. Other partners may have been found.
Molecular target: TRIM25 immunoprecipitated for mass spectrometry (UniProt Q14258)
Test: affinity purification with mass spectrometry; immunoprecipitation of TRIM25 and relative quantification of proteins in control and TRIM25‐overexpressing cells; cell line not stated

Protein sequences, listed by entry. Tags and fused reporters are not part of them.
UniProt Q14258: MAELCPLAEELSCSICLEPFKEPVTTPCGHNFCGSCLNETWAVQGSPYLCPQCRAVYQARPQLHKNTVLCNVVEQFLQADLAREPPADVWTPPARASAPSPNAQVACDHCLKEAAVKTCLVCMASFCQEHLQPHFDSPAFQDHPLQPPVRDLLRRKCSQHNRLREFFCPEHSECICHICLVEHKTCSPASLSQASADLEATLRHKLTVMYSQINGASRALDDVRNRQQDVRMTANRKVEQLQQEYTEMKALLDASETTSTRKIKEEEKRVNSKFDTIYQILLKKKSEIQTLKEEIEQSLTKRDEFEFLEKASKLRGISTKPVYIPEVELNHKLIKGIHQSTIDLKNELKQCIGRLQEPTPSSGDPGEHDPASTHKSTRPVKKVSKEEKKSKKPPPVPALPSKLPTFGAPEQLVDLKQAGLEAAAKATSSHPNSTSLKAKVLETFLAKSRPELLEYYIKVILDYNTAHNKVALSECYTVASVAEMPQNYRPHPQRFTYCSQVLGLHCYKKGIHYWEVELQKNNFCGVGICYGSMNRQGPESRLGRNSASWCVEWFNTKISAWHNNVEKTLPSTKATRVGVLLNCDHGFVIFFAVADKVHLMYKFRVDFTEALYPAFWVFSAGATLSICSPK

B1: INSIG1 found in the TRIM25 immunoprecipitate by mass spectrometry (protein, UniProt O15503 1-277)
chain: MPRLHDHFWSCSCAHSARRRGPPRASAAGLAAKVGEMINVSVSGPSLLAAHGAPDADPAPRGRSAAMSGPEPGSPYPNTWHHRLLQRSLVLFSVGVVLALVLNLLQIQRNVTLFPEEVIATIFSSAWWVPPCCGTAAAVVGLLYPCIDSHLGEPHKFKREWASVMRCIAVFVGINHASAKLDFANNVQLSLTLAALSLGLWWTFDRSRSGLGLGITIAFLATLITQFLVYNGVYQYTSPDFLYIRSWLPCIFFSGGVTVGNIGRQLAMGVPEKPHSD
- binding: binds
